This experiment concerns the target ROP54 with C-terminal 2×Strep 3×Flag epitope tag (ROP54SFII) (Toxoplasma gondii (type II, Pru∆ku80)). Description: co-IP; ROP54SFII parasite lysate (0.5% NP-40, 150 mM NaCl, protease inhibitors) on Strep-Tactin beads 4 h at room temperature, eluted with 10 mM desthiobiotin; 10% of the eluate probed by Western blot for known ROP kinases and pseudokinases; untagged Pru∆ku80 as control.

Results on 1 molecule are retold here after publication PMC4863586.

No constants are given. Whether binding was seen depends on the method and setting. In cells and extracts the contact can be indirect.

B1: ROP4 (protein, UniProt Q5Y808 34-578)
chain: RQRPHQWKSSEAALSVSPAGDIVDKYSRDSTEGENTVSEGEAEGSRGGSWLEQEGVELRSPSQDSQTGTSTASPTGFRRLLRRLRFWRRGSTRGSDDAAEVSRRTRVPLHTRLLQHLRRVARIIRHGVSAAAGRLFGRVRQVEAERPQPVFTEGDPPDLETNSLYYRDKVPGQGIIQEILRQKPGIAHHPESFSVVAADERVSRTLWAEGGVVRVASELGQPGRVLVRGRRIGLFRPGMQFEATDQATGEPMTALVGHTVLEATARDVDSMRNEGLAVGLFQKVKNPYLANRYLRFLAPFDLVTIPGKPLVQKAKSRNEVGWVKNLLFLLPPTHVDMETFVDEIGRFPQEDRPLADAARLYLTVQAVRLVAHLQDEGVVHGKIMPDSFCLKREGGLYLRDFGSLVRAGAKVVVPAEYDEYTPPEGRAAARSRFGSGATTMTYAFDAWTLGSVIFLIWCSRAPDTKSGYEYSVEFFFSRCRRVPENVKLLVYKLINPSVEARLLALQAIETPEYREMEEQLSAASRLYSGDGTLTGGDDDMPPLET
As to B1, the binding entry is on record as “no binding”.
